PubChem BioAssay AID1259254 | NCATS – 2017
This is a random part of about 59,000 reagents tested. Over the whole deposit, about 1,550 (2.6%) got an active call. 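G2 share is only a proxy for re-replication; each gene was hit by three separate siRNAs, and active genes were retested.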 The raw values are shown without normalisation. The numbers tell different reagents against one gene apart. No sequences are given here. The record does not give: the amount of reagent.

Aim: 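Finding genes that stop cells copying their DNA twice in one cycle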 (primary screen)
Cells: human HCT116 colorectal cancer cells
Reagent: single siRNA against human genes
Timing: 3 days
Detection: 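Imaged Hoechst DNA stain sorts each cell into a cycle phase by DNA amount; per plate, G2 fraction set to 0% for non-targeting and 100% for GMNN siRNA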
Scale: G2 robust z-score and G2 cells, % of GMNN control: higher = more G2 cells, more excess DNA replication; raw share of cells in G2: higher = larger share of cells with G2 DNA content
Call rule: 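Active siRNAs have a G2 robust z of 5 or more median absolute deviations over the median, which in these data means about 38% or higher of GMNN control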

The opening 5 records, ahead of the listing:
| gene knocked down | reagent no. | G2 robust z-score | G2 cells, % of GMNN control | raw share of cells in G2 (%) | Outcome |
| --- | --- | --- | --- | --- | --- |
| SPEF2 (sperm flagellar and cilia associated 2) | 1 | -0.826 | -2.84 | 3.26 | inactive |
| SPEF2 (sperm flagellar and cilia associated 2) | 2 | -0.0934 | 2.31 | 5.31 | inactive |
| SPEF2 (sperm flagellar and cilia associated 2) | 3 | -0.391 | 0.216 | 2.44 | inactive |
| CHIC1 (cysteine rich hydrophobic domain 1) | 1 | -0.402 | 0.138 | 3.24 | inactive |
| CHIC1 (cysteine rich hydrophobic domain 1) | 2 | 8.27 | 61.1 | 25.5 | active |

The listing, repeating the preview:
| gene knocked down | reagent no. | G2 robust z-score | G2 cells, % of GMNN control | raw share of cells in G2 (%) | Outcome |
| --- | --- | --- | --- | --- | --- |
| SPEF2 (sperm flagellar and cilia associated 2) | 1 | -0.826 | -2.84 | 3.26 | inactive |
| SPEF2 (sperm flagellar and cilia associated 2) | 2 | -0.0934 | 2.31 | 5.31 | inactive |
| SPEF2 (sperm flagellar and cilia associated 2) | 3 | -0.391 | 0.216 | 2.44 | inactive |
| CHIC1 (cysteine rich hydrophobic domain 1) | 1 | -0.402 | 0.138 | 3.24 | inactive |
| CHIC1 (cysteine rich hydrophobic domain 1) | 2 | 8.27 | 61.1 | 25.5 | active |
| CHIC1 (cysteine rich hydrophobic domain 1) | 3 | -0.877 | -3.2 | 2.92 | inactive |
| YWHAZ | 1 | 3.5 | 27.6 | 17.3 | inactive |
| YWHAZ | 2 | -0.578 | -1.1 | 3.85 | inactive |
| YWHAZ | 3 | -0.458 | -0.255 | 4.39 | inactive |
| FGF17 (fibroblast growth factor 17) | 1 | 1.6 | 14.2 | 11.4 | inactive |
| FGF17 (fibroblast growth factor 17) | 2 | -0.207 | 1.51 | 4.49 | inactive |
| FGF17 (fibroblast growth factor 17) | 3 | 1.29 | 12 | 7.6 | inactive |
| RPL7P23 (ribosomal protein L7 pseudogene 23) | 1 | 2.58 | 21.1 | 11.1 | inactive |
| RPL7P23 (ribosomal protein L7 pseudogene 23) | 2 | 4.61 | 35.4 | 14.3 | inactive |
| RPL7P23 (ribosomal protein L7 pseudogene 23) | 3 | 3.78 | 29.6 | 14.9 | inactive |
| PIGH (phosphatidylinositol glycan anchor biosynthesis class H) | 1 | 4.03 | 31.3 | 15 | inactive |
| PIGH (phosphatidylinositol glycan anchor biosynthesis class H) | 2 | 3.23 | 25.7 | 11.2 | inactive |
| PIGH (phosphatidylinositol glycan anchor biosynthesis class H) | 3 | 2.81 | 22.7 | 11.2 | inactive |
| PLAC8 (placenta associated 8) | 1 | -0.824 | -2.83 | 2.59 | inactive |
| PLAC8 (placenta associated 8) | 2 | 0.0628 | 3.41 | 5.71 | inactive |
| PLAC8 (placenta associated 8) | 3 | 0.324 | 5.24 | 4.93 | inactive |
| PEX6 (peroxisomal biogenesis factor 6) | 1 | -0.718 | -2.08 | 3.68 | inactive |
| PEX6 (peroxisomal biogenesis factor 6) | 2 | 2.23 | 18.7 | 9.12 | inactive |
| PEX6 (peroxisomal biogenesis factor 6) | 3 | -0.882 | -3.24 | 3.74 | inactive |
| AHNAK2 (AHNAK nucleoprotein 2) | 1 | 1.17 | 11.2 | 8.59 | inactive |
| AHNAK2 (AHNAK nucleoprotein 2) | 2 | 0.829 | 8.8 | 5.95 | inactive |
| AHNAK2 (AHNAK nucleoprotein 2) | 3 | -0.512 | -0.638 | 1.63 | inactive |
| ACP3 (acid phosphatase 3) | 1 | 0.289 | 5 | 6.42 | inactive |
| ACP3 (acid phosphatase 3) | 2 | 2.12 | 17.9 | 9.68 | inactive |
| ACP3 (acid phosphatase 3) | 3 | 2.05 | 17.4 | 8.73 | inactive |
| OR2G6 (olfactory receptor family 2 subfamily G member 6) | 1 | -0.831 | -2.88 | 2.76 | inactive |
| OR2G6 (olfactory receptor family 2 subfamily G member 6) | 2 | -0.809 | -2.73 | 2.43 | inactive |
| OR2G6 (olfactory receptor family 2 subfamily G member 6) | 3 | -1.11 | -4.86 | 2.77 | inactive |
| FRG1-DT (FRG1 divergent transcript) | 1 | 1.39 | 12.8 | 8.39 | inactive |
| FRG1-DT (FRG1 divergent transcript) | 2 | -0.983 | -3.95 | 1.48 | inactive |
| FRG1-DT (FRG1 divergent transcript) | 3 | -0.0573 | 2.56 | 4.57 | inactive |
| PHACTR3 (phosphatase and actin regulator 3) | 1 | 0.399 | 5.78 | 6.41 | inactive |
| PHACTR3 (phosphatase and actin regulator 3) | 2 | -0.869 | -3.14 | 2.39 | inactive |
| PHACTR3 (phosphatase and actin regulator 3) | 3 | -1.01 | -4.12 | 0.614 | inactive |
| C2orf69 (chromosome 2 open reading frame 69) | 1 | 0.576 | 7.02 | 6.12 | inactive |
| C2orf69 (chromosome 2 open reading frame 69) | 2 | 0.31 | 5.15 | 4.89 | inactive |
| C2orf69 (chromosome 2 open reading frame 69) | 3 | 0.249 | 4.72 | 4.7 | inactive |
| DAW1 (dynein assembly factor with WD repeats 1) | 1 | -0.28 | 0.994 | 3.96 | inactive |
| DAW1 (dynein assembly factor with WD repeats 1) | 2 | 0.884 | 9.19 | 6.04 | inactive |
| DAW1 (dynein assembly factor with WD repeats 1) | 3 | -0.144 | 1.96 | 3.38 | inactive |
| CEP95 (centrosomal protein 95) | 1 | -0.306 | 0.816 | 4.43 | inactive |
| CEP95 (centrosomal protein 95) | 2 | 0.313 | 5.17 | 4.62 | inactive |
| CEP95 (centrosomal protein 95) | 3 | 0.219 | 4.51 | 4.35 | inactive |
